US20250382330A1, “IMMUNOLOGICALLY ACTIVE POLYPEPTIDE” (CDRES PHARMA LLC, priority 2022, published 2025)
“Also recorded” adds a separate entry of the source. Part of at least one peptide drawing is inferred or uncertain, most often the ends. Some compounds share one wording; it may come from a single statement. Ends that are not written are not given here. Peptide text beside a SMILES is read from it.

Amino acid sequences for entries named in this document (tags omitted). Residues count along the entry.
UniProt O60603, 21-784: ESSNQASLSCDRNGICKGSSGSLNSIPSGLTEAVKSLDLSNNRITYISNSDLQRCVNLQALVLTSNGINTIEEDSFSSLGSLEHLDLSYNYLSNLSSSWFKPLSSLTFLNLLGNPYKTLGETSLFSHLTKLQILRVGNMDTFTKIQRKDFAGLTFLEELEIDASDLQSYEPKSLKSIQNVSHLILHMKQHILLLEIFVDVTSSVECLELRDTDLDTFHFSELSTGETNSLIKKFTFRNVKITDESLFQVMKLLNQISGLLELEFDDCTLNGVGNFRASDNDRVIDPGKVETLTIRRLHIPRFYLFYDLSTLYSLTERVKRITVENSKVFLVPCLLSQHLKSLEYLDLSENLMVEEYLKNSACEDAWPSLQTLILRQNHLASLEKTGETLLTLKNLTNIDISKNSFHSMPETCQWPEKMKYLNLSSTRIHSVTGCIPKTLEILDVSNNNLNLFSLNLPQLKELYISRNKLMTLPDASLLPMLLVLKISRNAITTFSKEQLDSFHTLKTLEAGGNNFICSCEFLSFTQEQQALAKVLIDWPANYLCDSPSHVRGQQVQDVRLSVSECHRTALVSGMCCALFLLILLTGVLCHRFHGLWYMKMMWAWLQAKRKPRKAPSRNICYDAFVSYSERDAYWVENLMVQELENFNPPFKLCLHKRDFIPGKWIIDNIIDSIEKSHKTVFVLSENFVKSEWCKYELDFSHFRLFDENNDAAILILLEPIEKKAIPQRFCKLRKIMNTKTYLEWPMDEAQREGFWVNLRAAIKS
UniProt O00206, 24-839: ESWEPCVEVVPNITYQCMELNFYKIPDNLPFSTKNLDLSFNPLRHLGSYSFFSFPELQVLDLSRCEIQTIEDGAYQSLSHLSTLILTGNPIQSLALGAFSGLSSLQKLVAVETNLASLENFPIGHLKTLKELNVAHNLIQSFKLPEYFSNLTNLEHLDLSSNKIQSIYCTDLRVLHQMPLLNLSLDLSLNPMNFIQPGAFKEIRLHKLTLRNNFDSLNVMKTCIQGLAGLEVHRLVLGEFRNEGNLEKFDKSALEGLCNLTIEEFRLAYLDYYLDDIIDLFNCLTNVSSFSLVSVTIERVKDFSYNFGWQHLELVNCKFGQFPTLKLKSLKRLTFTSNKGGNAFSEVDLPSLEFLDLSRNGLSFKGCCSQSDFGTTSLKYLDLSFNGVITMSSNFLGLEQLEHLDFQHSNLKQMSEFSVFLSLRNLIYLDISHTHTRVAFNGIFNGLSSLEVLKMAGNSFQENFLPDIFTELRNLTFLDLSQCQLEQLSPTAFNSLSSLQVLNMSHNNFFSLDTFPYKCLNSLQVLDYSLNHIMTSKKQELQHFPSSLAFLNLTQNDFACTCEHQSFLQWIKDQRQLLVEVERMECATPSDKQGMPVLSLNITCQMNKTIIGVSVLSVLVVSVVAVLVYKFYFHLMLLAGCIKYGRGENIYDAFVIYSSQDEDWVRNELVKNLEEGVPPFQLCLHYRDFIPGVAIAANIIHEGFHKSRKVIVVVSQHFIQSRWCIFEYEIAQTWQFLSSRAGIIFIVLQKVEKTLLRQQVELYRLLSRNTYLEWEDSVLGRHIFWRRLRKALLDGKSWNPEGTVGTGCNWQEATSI

Key:
[1] = Stability and aggregation of peptide solutions (turbidity, flocculence); assay type: physicochemical; details: for flocculence in solution: concentrations above 200 μM, solutions of approximately pH 6
[2] = biological target: T1, human TLR2 (Homo sapiens, UniProt O60603); assay: TLR2-driven NF-κB activation (SEAP reporter, OD 650 nm) in HEK293 cells transfected with human TLR2; assay type: cell-based; details: for TLR2-driven NF-κB activation: 500 μg/ml, 16-20 hours, FIG. 4
T1 construct: host or cells: HEK293

[3] = tested on: human TLR3, 4, 5, 7, 8, 9; assay: NF-κB activation in HEK293 cells expressing other human TLRs (human TLR panel); assay type: cell-based; details: 200 μg/ml
[4] = tested on: collagen-induced arthritis in Lewis rats; assay: Collagen-induced arthritis in Lewis rats, daily arthritis index; assay type: in vivo, Lewis rat
Protocol: A. Collagen-Induced Lewis Rat Model of Rheumatoid Arthritis (RA)-PeptideX2 (SEQ ID NO: 1). The Lewis rat system is an art-accepted in vivo animal model of collagen-induced rheumatoid arthritis. Lewis rats obtained from a commercial laboratory supply vendor were maintained during a quarantine period under standard animal care conditions and found to be free of any clinical signs of disease or distress. Bovine type II collagen (10 mg, Chondrex, Inc., Redmond, WA) was dissolved in 2.5 ml 0.1M acetic acid and stirred overnight at 4-8° C. in the dark, and then one ml of this collagen solution was emulsified in one ml of incomplete Freund's adjuvant (ICFA, Sigma, St. Louis, MO) on an ice bath. On day zero, each of five rats was injected with 0.2 ml of collagen/ICFA emulsion at two sites and then observed for the next 30 days with the arthritis index (AI) calculated daily using the 16-point scoring method of Bevaart et al. (2010 Meths. Mol. Biol. 602:181: 0 points, no joint swelling or edema; 1 point, slight edema and erythema limited to foot and/or ankle; 2 points, edema and erythema in the toes and most ankle joints; 3 points, severe edema and erythema in the paw below the ankle joint; 4 points, edema and erythema of all four paws including the ankle joint).
On day 15, the rats were divided into treatment groups and were dosed intravenously on a daily basis for the next 15 days (except as noted) with the pentide YLQMN (SEQ ID NO: 5)-containing PeptideX2 (SEQ ID NO: 1) to achieve final circulating concentrations of PeptideX2 peptide as follows: 0 μg/ml (vehicle control: 0.2% acetic acid-Dulbecco's phosphate buffered saline (PBS-D), pH 6.0); 100 μg/ml vehicle; 200 μg/ml vehicle, and 500 μg/ml vehicle per rat/per day. As a positive control for anti-inflammatory activity, daily dosing of a control rat with prednisolone at 10 mg/kg/day was used. The arthritis index was calculated daily for each viable rat throughout the 30-day study.
PeptideX2-13 was tested in the collagen-induced Lewis rat model of RA essentially as described above in Example 1 except that animals were treated with PeptideX2-13 (SEQ ID NO: 3) instead of with PeptideX2 (SEQ ID NO: 1).
Eleven Lewis rats were prepared using the collagen induced arthritis protocol. At day 15 thru day 30, three rats were given daily dosing of PeptideX2-13 (SEQ ID NO: 3) at 100 μg/ml, three rats were given daily dosing of PeptideX2-13 (SEQ ID NO: 3) at 250 μg/ml, and three rats were given daily dosing of PeptideX2-13 (SEQ ID NO: 3) at 500 μg/ml; as a positive control group, two rats were given prednisolone at 10 mg/kg/day.
6 Lewis rats (ENVIGO, female, 190-210g) were received, individually examined, and housed. No clinical signs of disease or distress were observed. The rats were placed in quarantine with daily inspections, and the rats were individually examined and found to be free of any clinical signs of disease or distress. No deaths were recorded during the quarantine period. The rats were released for routine maintenance. The rats were ear notched for identification purposes. 10 mg bovine Type II collagen (Chondrex, Cat. 20021) was dissolved in 2.5 ml 0.1M acetic acid by stirring overnight at 4-8° C. in the dark. 1.2 ml collagen was emulsified in 1.2 ml Incomplete Freund's Adjuvant (ICFA, Sigma, Cat. F5506) on an ice bath. […] The rats were weighed, anesthetized, shaved at the base of tail, and injected intra-dermally with 0.2 ml collagen/ICFA emulsion in two sites. The rats were returned to routine maintenance. Rat weights were recorded daily. The rats were scored for signs of arthritis daily as follows: • 1) each paw receives a score • 2) 0=no visible effects of arthritis • 3) 1=edema and/or erythema of one digit • 4)2=edema and/or erythema of 2 joints • 5) 3=edema and/or erythema of more than 2 joints • 6) 4=severe arthritis of the entire paw and digits • 7) Calculate Arthritic Index=add all individual paw scores • 8) Maximum Arthritic Index=16 […]

[5] = biological target: T2, TLR4 (Homo sapiens, UniProt O00206); assay: NF-κB activation in HEK293 cells expressing human TLR4 (human TLR panel); assay type: cell-based; details: 200 μg/ml
T2 construct: host or cells: HEK293

[6] = tested on: human peripheral white blood cells; details: free polypeptide; cited from earlier work
[7] = 100 μg/ml, daily dosing from day 15

## GRAAYLQMNAARG [K2R/K12R-substituted PeptideX2-13]
[1]
  flocculence in solution: did not produce flocculence
[2]
  TLR2-driven NF-κB activation: agonist activity

## GKLLYLQMNLLKG [SEQ ID NO: 21]
[2]
  TLR2-driven NF-κB activation: Higher levels of TLR2-driven NF-κB

## CSCC[C@H](NC(=O)[C@@H](N)CCC(N)=O)C(=O)N[C@@H](CC(N)=O)C(=O)O [modified peptideX2 (3), QMN] (H-Gln-Met-Asn-OH; N-terminus and C-terminus assumed)
[2]; 200 μg/ml, FIG. 6 experiment
  NF-κB activation, human TLR2: negligible activity

## CSCC[C@H](NC(=O)[C@H](CCC(N)=O)NC(=O)[C@@H](N)CC(C)C)C(=O)N[C@@H](CC(N)=O)C(=O)O [modified peptideX2 (4), LQMN] (H-LQMN-OH; N-terminus and C-terminus assumed)
[2]; 200 μg/ml, FIG. 6 experiment
  NF-κB activation, human TLR2: negligible activity

## GKSIAYLQMNSLKG [G2-PeptideX2]
[1]; solutions of pH around 6.0
  aggregation in solution: did not aggregate

## GKVVYLQMNVVKG [SEQ ID NO: 20]
[2]
  TLR2-driven NF-κB activation: Higher levels of TLR2-driven NF-κB

## GKYLQMNKG [SEQ ID NO: 22]
[2]
  TLR2-driven NF-κB activation: did not elicit a detectable response

## YLQMN [pentide, YLQMN]
[3]; FIG. 5 experiment
  NF-κB activation, other human TLRs: No evidence of any activity
[3]; FIG. 7 experiment
  NF-κB activation, other human TLRs: negligible activity
[2]; 200 μg/ml, FIG. 5 experiment
  NF-κB activation, human TLR2: slight stimulatory effect
  activity on TLR2, times less compared to peptideX2: about 3 times
[2]; 200 μg/ml, FIG. 5 experiment, listed as modified peptideX2
  NF-κB activation, human TLR2: very weak binding to TLR2
[2]; 200 μg/ml, FIG. 6 experiment
  NF-κB activation, human TLR2: negligible activity
[2]; 200 μg/ml, FIG. 7 experiment
  NF-κB activation, human TLR2: weak binding to TLR2

## PKAAYLQMNAAKP [SEQ ID NO: 12]
[2]
  TLR2-driven NF-κB activation: did not elicit a detectable response

## NMQLY [reverse modified peptideX2, NMQLY]
[3]; FIG. 6 experiment
  NF-κB activation, other human TLRs: negligible activity
[3]; FIG. 7 experiment
  NF-κB activation, other human TLRs: negligible activity
[2]; 200 μg/ml, FIG. 6 experiment
  NF-κB activation, human TLR2: weak binding only to TLR2
[2]; 200 μg/ml, FIG. 7 experiment, listed as rev-peptideX2
  NF-κB activation, human TLR2: activity greater than peptideX2
[2]; 200 μg/ml, FIG. 7 experiment, listed as reverse-peptideX2
  NF-κB activation, human TLR2: stronger binding to TLR2 than peptideX2

## GKAAYLQMNAAKG [PeptideX2-13]
[1]
  flocculence in solution: did not produce flocculence
[4]; [7]
  arthritis index: minimal effect
[4]; 250 μg/ml, daily dosing day 15 thru day 30
  arthritis index: decreased the arthritis index
[4]; 500 μg/ml, daily dosing day 15 thru day 30
  arthritis index: decreased the arthritis index
[4]; summary statement, no dose given
  effect in in vivo rheumatoid arthritis (RA) animal model: protective
[2]
  TLR2-driven NF-κB activation: agonist activity

## KSIAYLQMNSLK [PeptideX2, reference compound]
[3]; FIG. 6 experiment
  NF-κB activation, other human TLRs: negligible activity
[3]; FIG. 7 experiment
  NF-κB activation, other human TLRs: negligible activity
[5]
  affinity to TLR4: some slight affinity to TLR4
[1]; pH>6 or concentrations>4 mg/ml, exacerbated by freeze-thawing
  turbidity and flocculence of solutions: became turbid and exhibited flocculence
[4]; [7]
  arthritis index: no significant difference in arthritis index
[4]; 200 μg/ml final circulating concentration, daily IV from day 15
  arthritis index: decreased the arthritis index
[4]; 200 μg/ml final circulating concentration, daily IV from day 15, listed as peptide X2
  arthritis index: some anti-inflammatory benefit
[4]; 200 μg/ml, over 10 days of daily treatment started on study day 15
  decrease in the arthritis index relative to the vehicle control: 60%
[6]
  induction of IL-6, IL-10 and TNFα elaboration: low-level elaboration of cytokines; also recorded: modestly induce
[2]; 200 μg/ml, FIG. 6 experiment
  NF-κB activation, human TLR2: weak binding only to TLR2; also recorded: greater than reverse modified peptideX2
[2]; 200 μg/ml, FIG. 7 experiment
  NF-κB activation, human TLR2: greater than pentide
